Measurements reported in publication doi:10.1101/611533.
These are yes or no findings as the source states them, for the method shown. Some binding calls cover weakened binding; strength is not graded here. Tags and fused reporters may be left off the sequences shown. Values belong to the binder of their own block, whether it stands above or below them.

By UniProt entry, the sequences of proteins in these tests, tags left out.
UniProt Q9FTA2: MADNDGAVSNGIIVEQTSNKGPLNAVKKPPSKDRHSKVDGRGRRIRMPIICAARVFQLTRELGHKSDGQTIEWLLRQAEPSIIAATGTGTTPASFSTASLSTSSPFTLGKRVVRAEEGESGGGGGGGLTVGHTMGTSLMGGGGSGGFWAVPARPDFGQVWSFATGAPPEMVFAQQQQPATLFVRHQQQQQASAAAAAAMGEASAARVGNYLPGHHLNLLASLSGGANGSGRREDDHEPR
UniProt Q94BT6: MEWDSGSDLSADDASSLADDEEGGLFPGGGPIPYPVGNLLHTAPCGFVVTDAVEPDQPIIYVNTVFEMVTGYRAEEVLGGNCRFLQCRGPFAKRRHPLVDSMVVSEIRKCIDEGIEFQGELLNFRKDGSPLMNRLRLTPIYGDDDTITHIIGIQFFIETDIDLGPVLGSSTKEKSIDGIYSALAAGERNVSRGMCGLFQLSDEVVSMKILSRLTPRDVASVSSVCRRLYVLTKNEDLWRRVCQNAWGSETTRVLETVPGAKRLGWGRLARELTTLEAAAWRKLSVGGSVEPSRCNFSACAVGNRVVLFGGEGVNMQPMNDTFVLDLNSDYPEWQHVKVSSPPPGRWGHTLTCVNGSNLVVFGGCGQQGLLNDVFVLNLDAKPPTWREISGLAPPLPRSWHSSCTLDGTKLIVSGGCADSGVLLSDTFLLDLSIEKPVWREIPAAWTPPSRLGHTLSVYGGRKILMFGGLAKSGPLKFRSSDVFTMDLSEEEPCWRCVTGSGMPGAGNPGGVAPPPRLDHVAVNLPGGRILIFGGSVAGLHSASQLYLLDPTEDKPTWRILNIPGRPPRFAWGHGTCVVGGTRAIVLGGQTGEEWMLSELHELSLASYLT

What was measured:
Test in all cases: two-hybrid
[1] = biological target: T1, PSEUDO-RESPONSE REGULATOR 5 (PRR5), yeast two-hybrid fusion (Arabidopsis thaliana) (UniProt Q6LA42)
T1 sequence: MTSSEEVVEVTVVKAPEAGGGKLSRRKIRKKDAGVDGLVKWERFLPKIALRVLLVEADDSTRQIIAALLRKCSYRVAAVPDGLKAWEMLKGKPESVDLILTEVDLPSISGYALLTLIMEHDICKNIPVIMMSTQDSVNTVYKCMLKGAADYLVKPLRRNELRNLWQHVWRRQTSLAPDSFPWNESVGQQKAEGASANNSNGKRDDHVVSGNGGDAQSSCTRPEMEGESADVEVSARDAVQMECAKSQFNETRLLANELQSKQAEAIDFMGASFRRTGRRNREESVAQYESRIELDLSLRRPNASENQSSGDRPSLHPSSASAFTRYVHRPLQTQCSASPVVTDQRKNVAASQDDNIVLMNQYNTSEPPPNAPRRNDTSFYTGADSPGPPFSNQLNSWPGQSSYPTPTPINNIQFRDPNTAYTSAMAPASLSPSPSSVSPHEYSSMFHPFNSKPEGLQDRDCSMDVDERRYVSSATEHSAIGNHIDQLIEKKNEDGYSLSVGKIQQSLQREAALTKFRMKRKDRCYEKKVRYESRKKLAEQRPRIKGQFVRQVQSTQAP

[2] = biological target: T2, TIMING OF CAB2 EXPRESSION 1 (TOC1), yeast two-hybrid fusion (Arabidopsis thaliana) (UniProt Q9LKL2)
T2 sequence: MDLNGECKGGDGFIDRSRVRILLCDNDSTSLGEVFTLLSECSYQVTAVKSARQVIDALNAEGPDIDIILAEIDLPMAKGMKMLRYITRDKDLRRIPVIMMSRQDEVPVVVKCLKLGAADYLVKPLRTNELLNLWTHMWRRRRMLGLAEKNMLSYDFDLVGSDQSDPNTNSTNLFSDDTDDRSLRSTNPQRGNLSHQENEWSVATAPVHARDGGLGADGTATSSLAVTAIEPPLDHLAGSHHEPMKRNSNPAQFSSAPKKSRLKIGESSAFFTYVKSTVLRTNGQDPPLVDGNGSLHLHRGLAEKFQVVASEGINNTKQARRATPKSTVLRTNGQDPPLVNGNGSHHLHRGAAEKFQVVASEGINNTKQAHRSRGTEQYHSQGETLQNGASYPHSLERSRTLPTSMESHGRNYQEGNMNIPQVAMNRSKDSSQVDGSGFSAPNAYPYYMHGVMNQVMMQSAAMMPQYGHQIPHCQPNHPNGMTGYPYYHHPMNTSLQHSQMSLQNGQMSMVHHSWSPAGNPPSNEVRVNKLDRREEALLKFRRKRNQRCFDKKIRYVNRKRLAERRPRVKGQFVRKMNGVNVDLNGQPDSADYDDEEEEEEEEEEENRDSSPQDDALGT

[3] = biological target: CCA1 HIKING EXPEDITION (CHE), yeast two-hybrid fusion (Arabidopsis thaliana) (UniProt Q9FTA2)
[4] = biological target: ZEITLUPE (ZTL), full length, yeast two-hybrid fusion (Arabidopsis thaliana) (UniProt Q94BT6)
[5] = biological target: T3, GIGANTEA (GI), full length, yeast two-hybrid fusion (Arabidopsis thaliana) (UniProt Q9SQI2)
T3 sequence: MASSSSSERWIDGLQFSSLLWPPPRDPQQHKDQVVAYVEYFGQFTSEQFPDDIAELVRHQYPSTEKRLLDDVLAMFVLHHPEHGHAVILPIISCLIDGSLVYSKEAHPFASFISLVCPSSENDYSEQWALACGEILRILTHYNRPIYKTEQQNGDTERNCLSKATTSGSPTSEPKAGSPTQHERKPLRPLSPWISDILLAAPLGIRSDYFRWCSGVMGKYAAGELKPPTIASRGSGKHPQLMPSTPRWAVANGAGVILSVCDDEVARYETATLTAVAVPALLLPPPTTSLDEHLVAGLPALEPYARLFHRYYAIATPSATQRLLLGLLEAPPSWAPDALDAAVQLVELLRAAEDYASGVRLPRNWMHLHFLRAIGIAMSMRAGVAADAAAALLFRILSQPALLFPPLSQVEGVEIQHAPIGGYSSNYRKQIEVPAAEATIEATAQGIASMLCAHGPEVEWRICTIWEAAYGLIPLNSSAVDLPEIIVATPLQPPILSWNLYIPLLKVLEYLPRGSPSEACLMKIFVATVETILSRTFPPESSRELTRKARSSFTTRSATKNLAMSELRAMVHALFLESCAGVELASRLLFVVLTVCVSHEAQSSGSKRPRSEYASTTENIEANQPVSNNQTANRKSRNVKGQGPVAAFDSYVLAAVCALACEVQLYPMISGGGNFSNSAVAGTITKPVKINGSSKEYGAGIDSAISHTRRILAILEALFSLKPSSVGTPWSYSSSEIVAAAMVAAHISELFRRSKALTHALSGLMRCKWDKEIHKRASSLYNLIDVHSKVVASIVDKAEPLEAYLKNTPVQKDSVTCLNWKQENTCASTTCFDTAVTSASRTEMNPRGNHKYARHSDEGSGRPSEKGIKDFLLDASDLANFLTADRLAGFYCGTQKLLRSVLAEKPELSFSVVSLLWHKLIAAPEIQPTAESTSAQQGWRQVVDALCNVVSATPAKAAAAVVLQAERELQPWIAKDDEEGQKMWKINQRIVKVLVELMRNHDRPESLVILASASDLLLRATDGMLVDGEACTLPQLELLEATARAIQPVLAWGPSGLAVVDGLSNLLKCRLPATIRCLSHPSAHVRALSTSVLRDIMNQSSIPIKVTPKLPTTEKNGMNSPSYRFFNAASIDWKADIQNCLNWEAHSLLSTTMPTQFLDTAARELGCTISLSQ

binding [1]: no binding
binding [2]: no binding
binding [3]: no binding
binding [4]: no binding
binding [5]: binds
B1: UBIQUITIN-SPECIFIC PROTEASE 12 (UBP12), full length, yeast two-hybrid fusion (enzyme, UniProt Q9FPT1 1-1116)
chain: MTMMTPPPVDQPEDEEMLVPNSDLVDGPAQPMEVTQPETAASTVENQPAEDPPTLKFTWTIPNFSRQNTRKHYSDVFVVGGYKWRILIFPKGNNVDHLSMYLDVSDAASLPYGWSRYAQFSLAVVNQIHTRYTVRKETQHQFNARESDWGFTSFMPLSELYDPSRGYLVNDTVLVEAEVAVRKVLDYWSYDSKKETGFVGLKNQGATCYMNSLLQTLYHIPYFRKAVYHMPTTENDAPTASIPLALQSLFYKLQYNDTSVATKELTKSFGWDTYDSFMQHDVQELNRVLCEKLEDKMKGTVVEGTIQQLFEGHHMNYIECINVDFKSTRKESFYDLQLDVKGCKDVYASFDKYVEVERLEGDNKYHAEGHGLQDAKKGVLFIDFPPVLQLQLKRFEYDFMRDTMVKINDRYEFPLELDLDREDGKYLSPDADRSVRNLYTLHSVLVHSGGVHGGHYYAFIRPTLSDQWYKFDDERVTKEDLKRALEEQYGGEEELPQTNPGFNNNPPFKFTKYSNAYMLVYIRESDKDKIICNVDEKDIAEHLRVRLKKEQEEKEDKRRYKAQAHLYTIIKVARDEDLKEQIGKDIYFDLVDHDKVRSFRIQKQTPFQQFKEEVAKEFGVPVQLQRFWIWAKRQNHTYRPNRPLTPQEELQPVGQIREASNKANTAELKLFLEVEHLDLRPIPPPEKSKEDILLFFKLYDPEKAVLSYAGRLMVKSSSKPMDITGKLNEMVGFAPDEEIELFEEIKFEPCVMCEHLDKKTSFRLCQIEDGDIICFQKPLVNKEIECLYPAVPSFLEYVQNRQLVRFRALEKPKEDEFVLELSKQHTYDDVVEKVAEKLGLDDPSKLRLTSHNCYSQQPKPQPIKYRGVDHLSDMLVHYNQTSDILYYEVLDIPLPELQGLKTLKVAFHHATKEEVVIHNIRLPKQSTVGDVINELKTKVELSHPDAELRLLEVFYHKIYKIFPSTERIENINDQYWTLRAEEIPEEEKNIGPNDRLILVYHFAKETGQNQQVQNFGEPFFLVIHEGETLEEIKNRIQKKLHVSDEDFAKWKFAFMSMGRPEYLQDTDVVYNRFQRRDVYGAFEQYLGLEHADTTPKRAYAANQNRHAYEKPVKIYN

binding [1]: no binding
binding [2]: no binding
binding [3]: no binding
binding [4]: no binding
binding [5]: binds
B2: UBIQUITIN-SPECIFIC PROTEASE 13 (UBP13), full length, yeast two-hybrid fusion (enzyme, UniProt Q84WU2 1-1115)
chain: MTMMTPPPLDQQEDEEMLVPNPDLVEGPQPMEVAQTDPAATAVENPPPEDPPSLKFTWTIPMFTRLNTRKHYSDVFVVGGYKWRILIFPKGNNVDHLSMYLDVADAANLPYGWSRYSQFSLAVVNQVNNRYSIRKETQHQFNARESDWGFTSFMPLSELYEPTRGYLVNDTVLIEAEVAVRKVLDYWSYDSKKETGFVGLKNQGATCYMNSLLQTLYHIPYFRKAVYHMPTTENDAPTASIPLALQSLFYKLQYNDTSVATKELTKSFGWDTYDSFMQHDVQELNRVLCEKLEDKMKGTVVEGTIQKLFEGHHMNYIECINVDYKSTRKESFYDLQLDVKGCKDVYASFDKYVEVERLEGDNKYHAEGHDLQDAKKGVLFIDFPPVLQLQLKRFEYDFMRDTMVKINDRYEFPLQLDLDREDGRYLSPDADKSVRNLYTLHSVLVHSGGVHGGHYYAFIRPTLSDQWYKFDDERVTKEDVKRALEEQYGGEEELPQNNPGFNNPPFKFTKYSNAYMLVYIRESDKDKIICNVDEKDIAEHLRVRLKKEQEEKEDKRKYKAQAHLFTTIKVARDDDITEQIGKNIYFDLVDHEKVRSFRIQKQTPFQQFKEEVAKEFGVPVQLQRFWIWAKRQNHTYRPNRPLSPNEELQTVGQIREASNKANNAELKLFLEIERGPDDLPIPPPEKTSEDILLFFKLYDPENAVLRYVGRLMVKSSSKPMDIVGQLNKMAGFAPDEEIELFEEIKFEPCVMCEQIDKKTSFRLCQIEDGDIICYQKPLSIEESEFRYPDVPSFLEYVQNRELVRFRTLEKPKEDEFTMELSKLHTYDDVVERVAEKLGLDDPSKLRLTSHNCYSQQPKPQPIKYRGVDHLSDMLVHYNQTSDILYYEVLDIPLPELQGLKTLKVAFHSATKDEVIIHNIRLPKQSTVGDVINELKTKVELSHQDAELRLLEVFFHKIYKIFPSTERIENINDQYWTLRAEEIPEEEKNIGPNDRLIHVYHFTKEAGQNQQVQNFGEPFFLVIHEGETLEEIKTRIQKKLHVPDEDFAKWKFASFSMGRPDYLLDTDVVYNRFQRRDVYGAWEQYLGLEHIDNAPKRAYAANQNRHAYEKPVKIYN
